Measurements: paper PMC3146510

What was measured:
[1] = target: integrin α3β1 (human (endogenous in fetal pancreas)); test: co-IP; detergent extracts (1% Brij 96, 25 mM Hepes pH 7.5, 150 mM NaCl, 5 mM MgCl2) of human embryonic pancreatic explants; 700 µg protein; immunoprecipitation with rabbit polyclonal anti-α2, -α3, -α5, -β3, anti-Netrin-4 or rabbit IgG at 4°C overnight; Western blotting for Netrin-4
[2] = target: α5 integrin subunit (human (endogenous in fetal pancreas)); test: as above

B1: Netrin-4 (protein, UniProt Q9HB63 19-628)
chain: GLSGVAGVSSRCEKACNPRMGNLALGRKLWADTTCGQNATELYCFYSENTDLTCRQPKCDKCNAAYPHLAHLPSAMADSSFRFPRTWWQSAEDVHREKIQLDLEAEFYFTHLIVMFKSPRPAAMVLDRSQDFGKTWKPYKYFATNCSATFGLEDDVVKKGAICTSKYSSPFPCTGGEVIFKALSPPYDTENPYSAKVQEQLKITNLRVQLLKRQSCPCQRNDLNEEPQHFTHYAIYDFIVKGSCFCNGHADQCIPVHGFRPVKAPGTFHMVHGKCMCKHNTAGSHCQHCAPLYNDRPWEAADGKTGAPNECRTCKCNGHADTCHFDVNVWEASGNRSGGVCDDCQHNTEGQYCQRCKPGFYRDLRRPFSAPDACKPCSCHPVGSAVLPANSVTFCDPSNGDCPCKPGVAGRRCDRCMVGYWGFGDYGCRPCDCAGSCDPITGDCISSHTDIDWYHEVPDFRPVHNKSEPAWEWEDAQGFSALLHSGKCECKEQTLGNAKAFCGMKYSYVLKIKILSAHDKGTHVEVNVKIKKVLKSTKLKIFRGKRTLYPESWTDRGCTCPILNPGLEYLVAGHEDIRTGKLIVNMKSFVQHWKPSLGRKVMDILKRECK
With B1 the binding [1] was “binds” and the binding [2] was “no binding”.

Results are given in words; binding and its absence hold for the method and conditions named. Binding seen in cells or lysates may run through a third protein. For some assays here: A result given as binding can be weak or reduced; the word gives no strength.
